No constants are given. Whether binding was seen depends on the method and setting. Binding seen in cells or lysates may run through a third protein. Some results given as binding are weak or reduced against the parent protein; the word gives no strength.
How the values were obtained:
[1] = target: FLAG-tagged human APOBEC3G (human) (UniProt Q9HC16); assay: co-IP; 293T cells over-expressing FLAG-tagged mAPOBEC3, hAPOBEC3G or RFP; endogenous partner detected by Western blot; no RNase A
[2] = target: FLAG-tagged human APOBEC3G (human) (UniProt Q9HC16); assay: condition: only lysates treated with RNase A (50 µg/ml, 37°C, 30 minutes) prior to immunoprecipitation; co-IP; as a2, but lysates incubated with RNase A (50 µg/ml) at 37°C for 30 minutes prior to immunoprecipitation

By UniProt entry, the sequences of proteins in these tests, tags left out.
UniProt Q9HC16: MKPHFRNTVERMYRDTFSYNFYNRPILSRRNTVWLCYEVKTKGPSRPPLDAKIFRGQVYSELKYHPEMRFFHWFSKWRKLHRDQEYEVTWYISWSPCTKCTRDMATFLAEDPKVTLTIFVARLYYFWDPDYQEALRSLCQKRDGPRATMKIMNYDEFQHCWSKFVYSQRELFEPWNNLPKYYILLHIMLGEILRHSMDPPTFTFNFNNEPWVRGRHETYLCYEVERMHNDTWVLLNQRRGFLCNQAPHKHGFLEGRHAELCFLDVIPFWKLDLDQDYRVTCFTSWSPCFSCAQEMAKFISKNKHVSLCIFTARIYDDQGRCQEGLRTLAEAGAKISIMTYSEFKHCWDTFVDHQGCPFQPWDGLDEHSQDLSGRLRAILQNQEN
UniProt P67809: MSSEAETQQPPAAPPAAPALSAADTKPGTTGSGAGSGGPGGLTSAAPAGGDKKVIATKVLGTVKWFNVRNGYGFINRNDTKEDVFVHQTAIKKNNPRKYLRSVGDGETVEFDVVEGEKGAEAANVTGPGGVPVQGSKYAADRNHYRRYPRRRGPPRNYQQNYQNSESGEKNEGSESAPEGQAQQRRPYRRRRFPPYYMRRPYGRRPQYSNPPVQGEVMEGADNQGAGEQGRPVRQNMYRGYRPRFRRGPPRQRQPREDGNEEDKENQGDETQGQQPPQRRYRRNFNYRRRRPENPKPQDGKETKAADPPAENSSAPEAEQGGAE

binding [1]: binds
binding [2]: no binding
Substance: Y-box binding protein 1 (YB1), endogenous in 293T cells (from UniProt P67809 1-324)

— publication PMC11990775
